Results are given in words; binding and its absence hold for the method and conditions named. Some results given as binding are weak or reduced against the parent protein; the word gives no strength.
Tests used:
free GPC3 (human) [1] = molecular target: free GPC3 (human) (UniProt P51654); assay: antibody selection; used as capture antibody in sandwich immunoassay of serum free GPC3
free GPC3 (human) [2] = molecular target: free GPC3 (human) (UniProt P51654); assay: antibody selection; used as labeled detection antibody in sandwich immunoassay of serum free GPC3

Sequences of proteins named here, by UniProt entry; tags and fusion partners are left off. A change or cut given only in a name is not applied to a line headed by its entry.
UniProt P51654: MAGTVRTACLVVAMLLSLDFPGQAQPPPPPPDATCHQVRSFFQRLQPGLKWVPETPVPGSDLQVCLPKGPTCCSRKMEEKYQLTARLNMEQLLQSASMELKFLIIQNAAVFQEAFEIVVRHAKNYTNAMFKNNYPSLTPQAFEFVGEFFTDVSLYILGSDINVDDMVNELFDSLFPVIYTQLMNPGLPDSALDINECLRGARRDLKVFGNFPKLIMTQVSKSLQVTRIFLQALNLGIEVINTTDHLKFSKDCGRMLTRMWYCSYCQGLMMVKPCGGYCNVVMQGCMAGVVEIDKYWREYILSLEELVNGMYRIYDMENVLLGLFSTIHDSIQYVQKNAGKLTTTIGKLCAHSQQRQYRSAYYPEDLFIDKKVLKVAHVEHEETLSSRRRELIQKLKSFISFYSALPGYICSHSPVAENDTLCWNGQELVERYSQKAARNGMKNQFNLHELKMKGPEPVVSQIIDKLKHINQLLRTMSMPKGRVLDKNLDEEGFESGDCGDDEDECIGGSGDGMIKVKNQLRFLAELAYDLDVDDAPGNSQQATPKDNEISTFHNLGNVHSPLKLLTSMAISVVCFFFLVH

Row | binding (free GPC3 (human) [1]) | binding (free GPC3 (human) [2]) | Binder
1 |  | binds | GT607 antibody (antibody, V domains shown) VH: EVQLVESGGDVVRPGGSLKLSCAASGFTFSSYGMSWVRQLPDKRLEWVASVGNGGSYRYYPENLKGRFTISRDNTKNTLYLQISGLKSEDTAIYYCARRGAFPYFDVWGAGTTVTVSS VL: DIQMTQSPASLSASVGETVTITCRTSENIYSYLAWYQQKQGKSPQLLVYNAKTLPEGVPSRFSGSGSGTQFSLKINSLQPEDFGSYYCQHHYGTPPTFGGGTKLEIKR
2 |  | binds | GT165 antibody (antibody, V domains shown) VH: QVQLQQSGAELVGPGASVKISCKAFGYTFTNHHINWVKQRPGQGLDWIGYINPYNDYTNYNQKFKGKATLTVDKSSSTAYMELSSLTSEDSAVYYCARSDPAWFAYWGQGTLVTVSA VL: DIQMTQSPSSLSASLGGKVTITCKASQDINKNIAWYQHKPGKGPRLLIWYTYTLQPGIPSRFSGSGSGRDYSFSISNLEPEDIATYYCLQYDNLPFTFGTGTKLEIKR

Second part, the binder before the results:

Row | Binder | binding (free GPC3 (human) [1]) | binding (free GPC3 (human) [2])
3 | GT114 antibody (antibody, V domains shown) VH: DVQLQESGPGLVKPSQSLSLTCTVTGYSITSDSAWNWIRQFPGNKLEWMAYIMYSGITSYNPSLKSRISITRDTAKNQFFLQLNSVTTEDSATYYCSRGYWYFDVWGAGTTVTVSS VL: QIVLTQSPAIMSASLGEEITLTCSASSSVSYMHWYQQKSGTSPKLLIYSTSILASGVPSRFSGSGSGTFYSLTISSVEAEDAADYYCLQWITYRTFGGGTKLEIKR | binds | 
4 | GT30 antibody (antibody, V domains shown) VH: QVQLQQSGAELARPGASVKLSCRASGYTFTSYGISWMMQRTGQGLEWIGEIYPRSGITYYNEKFKGKATLTADKSSSTAYMQLSSLTSEDSAVYFCARDVSDGYLFPYWGQGTLVTVSA VL: DIQMTQSPASLSASVGETVTITCRTSENIYSYLAWYQQKQGKSPQLLVYNAKTLPEGVPSRFSGSGSGTQFSLKINSLQPEDFGSYYCQHHYGTPPTFGGGTKLEIKR | binds | 

Reference: EP4119947A1
